# Laboratory results: the supplement of paper PMC4604168 (melanoma cell lines)
# The list shows a part of the results. Many values rest on one well or one pass, so single values are uncertain.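 Imaging used 1,536-well plates; nuclei positive for cleaved PARP by antibody were divided by total DNA-stained nuclei to yield the apoptosis fraction. Doses for screening kept most cells viable, and cell lines differ markedly in resting and induced cleaved-PARP levels.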
# How the values were obtained:
# Assay in all cases: cleaved PARP positive nuclei fraction relative to DMSO control; melanoma cells; higher = more apoptosis
# Details in all cases: library dose: low library concentration; 72 h
# 501Mel = system: 501Mel
# A101D = system: A101D
# A2058 = system: A2058
# A375 = system: A375
# C32 = system: C32
# CBRC013 = system: CBRC013 (line from a melanoma biopsy)
# CBRC014 = system: CBRC014 (line from a melanoma biopsy)
# CBRC016 = system: CBRC016 (line from a melanoma biopsy)
# CBRC017 = system: CBRC017 (line from a melanoma biopsy)
Compound,cleaved PARP positive nuclei fraction (501Mel),cleaved PARP positive nuclei fraction (A101D),cleaved PARP positive nuclei fraction (A2058),cleaved PARP positive nuclei fraction (A375),cleaved PARP positive nuclei fraction (C32),cleaved PARP positive nuclei fraction (CBRC013),cleaved PARP positive nuclei fraction (CBRC014),cleaved PARP positive nuclei fraction (CBRC016),cleaved PARP positive nuclei fraction (CBRC017)
"O=S(=O)(c1ccccc1)N(CC(F)(F)F)c1ccc(C(O)(C(F)(F)F)C(F)(F)F)cc1 + c1cc(-c2cnn3cc(-c4ccc(OCCN5CCCCC5)cc4)cnc23)ccn1 [Dorsomorphin] (first compound 1.4 µM, partner dose 0.4 µM)",100%,143%,63.1%,58.7%,126%,66.5%,123%,93.9%,97.2%
"COC(=O)c1sccc1S(=O)(=O)Nc1ccc(Nc2ccccc2)cc1OC + Cn1cc(/C=C2\C(=O)Nc3cccnc32)c2ccccc21 [GW441756] (first compound 1 µM, partner dose 0.4 µM)",46.2%,62.6%,137%,134%,271%,246%,89.9%,93%,92.2%
"COC(=O)c1sccc1S(=O)(=O)Nc1ccc(Nc2ccccc2)cc1OC + Oc1nc(-c2ccc(C(F)(F)F)cc2)nc2c1CSCC2 [XAV939] (first compound 1 µM, partner dose 2 µM)",41.6%,195%,76%,161%,35.4%,67.5%,162%,32.1%,91.8%
"Oc1cc(-c2nc(-c3ccccc3)[nH]c2-c2ccncc2)ccc1Cl + Cn1cc(/C=C2\C(=O)Nc3cccnc32)c2ccccc21 [GW441756] (first compound 0.2 µM, partner dose 0.4 µM)",129%,243%,32.4%,234%,124%,77.2%,90.9%,44.6%,96.2%
"O=C(O)c1ccc(-c2c[nH]c3ncc(-c4ccccc4)cc23)cc1C1CCCC1 + CCc1ccc(CCOc2ccc(CC3SC(=O)NC3=O)cc2)nc1 [pioglitazone] (first compound 0.16 µM, partner dose 2 µM)",63.6%,107%,56.9%,44.3%,131%,69.7%,107%,79.5%,93.8%
"COC(=O)c1sccc1S(=O)(=O)Nc1ccc(Nc2ccccc2)cc1OC + COc1ccc(COc2ccc(Cc3cnc(N)nc3N)cc2OC)cc1 [GW2580] (first compound 1 µM, partner dose 1 µM)",59.8%,97.9%,96.4%,73.1%,210%,60.4%,95.6%,110%,80%
"N#Cc1c(O)c2c(-c3ccc(-c4ccccc4O)cc3)csc2[nH]c1=O + c1cc(-c2cnn3cc(-c4ccc(OCCN5CCCCC5)cc4)cnc23)ccn1 [Dorsomorphin] (first compound 2 µM, partner dose 0.4 µM)",86.9%,98.8%,114%,91.3%,130%,67.3%,344%,187%,78.9%
"COC(=O)c1sccc1S(=O)(=O)Nc1ccc(Nc2ccccc2)cc1OC + CCCCCCCCCCCC1=C(O)C(=O)C=C(O)C1=O [Embelin] (first compound 1 µM, partner dose 1.2 µM)",61.3%,107%,57.7%,143%,209%,791%,94.6%,171%,44%
"CCc1ccc(CCOc2ccc(CC3SC(=O)NC3=O)cc2)nc1 (stereo not given) [pioglitazone] + CCN(CC)CCCCNc1ncc2cc(-c3cc(OC)cc(OC)c3)c(NC(=O)NC(C)(C)C)nc2n1 [PD173074] (first compound 2 µM, partner dose 0.1 µM)",163%,310%,43.6%,67.5%,25.8%,64.5%,84.4%,63.2%,70.2%
"CCN(CC)CCCCNc1ncc2cc(-c3cc(OC)cc(OC)c3)c(NC(=O)NC(C)(C)C)nc2n1 + Oc1nc(-c2ccc(C(F)(F)F)cc2)nc2c1CSCC2 [XAV939] (first compound 0.1 µM, partner dose 2 µM)",75.8%,52.4%,210%,61.9%,260%,58%,77.7%,36.4%,72.9%
"CN(NC(=O)CC(=O)NN(C)C(=S)c1ccccc1)C(=S)c1ccccc1 + Oc1cc(-c2nc(-c3ccccc3)[nH]c2-c2ccncc2)ccc1Cl [L779450] (first compound 0.006 µM, partner dose 0.2 µM)",60.5%,350%,76.2%,1500%,165%,145%,549%,255%,114%
"COc1cc2c(Oc3ccc4[nH]c(C)cc4c3F)ncnc2cc1OCCCN1CCCC1 [cediranib] + Cn1cc(/C=C2\C(=O)Nc3cccnc32)c2ccccc21 [GW441756] (first compound 0.4 µM, partner dose 0.4 µM)",51.2%,103%,55.3%,98.4%,51.4%,156%,92.7%,38.1%,93.4%
"CCN(CC)CCCCNc1ncc2cc(-c3cc(OC)cc(OC)c3)c(NC(=O)NC(C)(C)C)nc2n1 + Cc1cc([N+](=O)[O-])ccc1NS(=O)(=O)c1cc(Cl)ccc1Cl [FH535] (first compound 0.1 µM, partner dose 1 µM)",117%,138%,110%,151%,205%,51.8%,151%,2810%,523%
"COc1cc2ncnc(Nc3ccc(Oc4ccccc4)cc3)c2cc1OC + O=c1cc(-c2cccc3c2Sc2ccccc2S3)oc(N2CCOCC2)c1 [KU55933] (first compound 2 µM, partner dose 1 µM)",78.8%,45.5%,82.4%,116%,25.8%,24.1%,82.7%,62.6%,93.7%
"Oc1cc(-c2nc(-c3ccccc3)[nH]c2-c2ccncc2)ccc1Cl + O=c1cc(-c2cccc3c2Sc2ccccc2S3)oc(N2CCOCC2)c1 [KU55933] (first compound 0.2 µM, partner dose 1 µM)",91.8%,58.7%,136%,99.7%,77.7%,94.9%,97.1%,88.8%,102%
"CN(NC(=O)CC(=O)NN(C)C(=S)c1ccccc1)C(=S)c1ccccc1 + Cn1cc(/C=C2\C(=O)Nc3cccnc32)c2ccccc21 [GW441756] (first compound 0.006 µM, partner dose 0.4 µM)",178%,66.2%,783%,4200%,264%,344%,462%,154%,388%
"COc1ccc(-c2ccc3c(N4CCOCC4)nc(N4C[C@@H](C)O[C@@H](C)C4)nc3n2)cc1CO + Cc1cc([N+](=O)[O-])ccc1NS(=O)(=O)c1cc(Cl)ccc1Cl [FH535] (first compound 0.02 µM, partner dose 1 µM)",35.8%,46.8%,117%,348%,252%,123%,220%,829%,237%
"O=C(O)c1ccc(-c2c[nH]c3ncc(-c4ccccc4)cc23)cc1C1CCCC1 + CC(C)CCN1c2nc(Nc3cc(F)c(O)c(F)c3)ncc2N(C)C(=O)C1C [BID1870] (first compound 0.16 µM, partner dose 0.2 µM)",78.8%,134%,47.5%,296%,94.2%,171%,96.8%,138%,102%
"c1cc(-c2cnn3cc(-c4ccc(OCCN5CCCCC5)cc4)cnc23)ccn1 [Dorsomorphin] + Cn1cc(/C=C2\C(=O)Nc3cccnc32)c2ccccc21 [GW441756] (first compound 0.4 µM, partner dose 0.4 µM)",87.5%,39.2%,38.8%,360%,109%,54.1%,116%,64.2%,90.2%
"CCc1ccc(CCOc2ccc(CC3SC(=O)NC3=O)cc2)nc1 (stereo not given) [pioglitazone] + c1cc(-c2cnn3cc(-c4ccc(OCCN5CCCCC5)cc4)cnc23)ccn1 [Dorsomorphin] (first compound 2 µM, partner dose 0.4 µM)",192%,94.9%,62.2%,137%,107%,30%,82.4%,66.1%,68.8%
"O=C(O)c1ccc(-c2c[nH]c3ncc(-c4ccccc4)cc23)cc1C1CCCC1 + COc1cc2ncnc(Nc3ccc(Oc4ccccc4)cc3)c2cc1OC [SrcI1] (first compound 0.16 µM, partner dose 2 µM)",58.3%,122%,130%,187%,150%,243%,117%,196%,89.1%
"COc1cc2ncnc(Nc3ccc(Oc4ccccc4)cc3)c2cc1OC + c1cc(-c2cnn3cc(-c4ccc(OCCN5CCCCC5)cc4)cnc23)ccn1 [Dorsomorphin] (first compound 2 µM, partner dose 0.4 µM)",77.3%,48.9%,88.2%,45.6%,71.9%,61.8%,94.1%,88.4%,98.2%
"NCC(=O)Nc1ccc(-n2nc(C(F)(F)F)cc2-c2ccc3c(ccc4ccccc43)c2)cc1 + Cc1cc([N+](=O)[O-])ccc1NS(=O)(=O)c1cc(Cl)ccc1Cl [FH535] (first compound 1 µM, partner dose 1 µM)",434%,119%,195%,4280%,62.1%,308%,200%,2730%,298%
"Cn1cc(/C=C2\C(=O)Nc3cccnc32)c2ccccc21 + CCCCCCCCCCCC1=C(O)C(=O)C=C(O)C1=O [Embelin] (first compound 0.4 µM, partner dose 1.2 µM)",70.4%,111%,76.9%,126%,126%,415%,108%,31.5%,94.9%
"CCc1ccc(CCOc2ccc(CC3SC(=O)NC3=O)cc2)nc1 (stereo not given) [pioglitazone] + Oc1cc(-c2nc(-c3ccccc3)[nH]c2-c2ccncc2)ccc1Cl [L779450] (first compound 2 µM, partner dose 0.2 µM)",63.4%,106%,85.5%,682%,93.6%,143%,95.6%,46%,100%

# Record cards, as listed above. Values in the order: cleaved PARP positive nuclei fraction (501Mel) | cleaved PARP positive nuclei fraction (A101D) | cleaved PARP positive nuclei fraction (A2058) | cleaved PARP positive nuclei fraction (A375) | cleaved PARP positive nuclei fraction (C32) | cleaved PARP positive nuclei fraction (CBRC013) | cleaved PARP positive nuclei fraction (CBRC014) | cleaved PARP positive nuclei fraction (CBRC016) | cleaved PARP positive nuclei fraction (CBRC017)
# NCC(=O)Nc1ccc(-n2nc(C(F)(F)F)cc2-c2ccc3c(ccc4ccccc43)c2)cc1 + Cc1cc([N+](=O)[O-])ccc1NS(=O)(=O)c1cc(Cl)ccc1Cl [FH535] (first compound 1 µM, partner dose 1 µM) is entered as 434% | 119% | 195% | 4280% | 62.1% | 308% | 200% | 2730% | 298%
# COc1ccc(-c2ccc3c(N4CCOCC4)nc(N4C[C@@H](C)O[C@@H](C)C4)nc3n2)cc1CO + Cc1cc([N+](=O)[O-])ccc1NS(=O)(=O)c1cc(Cl)ccc1Cl [FH535] (first compound 0.02 µM, partner dose 1 µM) is entered as 35.8% | 46.8% | 117% | 348% | 252% | 123% | 220% | 829% | 237%
